Measurements published in patent publication US20240294634A1.
Results are given in words; binding and its absence hold for the method and conditions named. Binding calls can cover weak binding; strength is not graded here.

Columns and labels:
[1] = biological target: ILT2 D1 domain fragment protein anchored to the cell surface (human); experiment: flow cytometry on CHO cells expressing the anchored ILT2 D1 domain fragment
[2] = biological target: ILT2 D1 domain fragment protein anchored to the cell surface (human); experiment: flow cytometry, CHO cells with anchored ILT2 fragment
[3] = biological target: ILT2 D1-D2 domain fragment protein anchored to the cell surface (human); experiment: as above
[4] = biological target: ILT2 D1-D2-D3 domain fragment protein anchored to the cell surface (human); experiment: as above

Measured: binding

B1: 12D12 (antibody, human IgG1, V domains shown)
VH: QVQLQQPGAELVKPGASVRMSCKASGYTFTSYWVHWVKQRPGQGLEWIGVIDPSDSYTSYNQNFKGKATLTVDTSSKTAYIHLSSLTSEDSAVYFCARGERYDGDYFAMDYWGQGTSVTVSS
VL: DIVMTQSPASLSVSVGETVTITCRASENIYSNLAWYQQKQGKSPQLLVYAATNLADGVPSRFSGSRSGTQYSLKINSLQSEDFGTYYCQHFWNTPRTFGGGTKLEIK
binds: all assays above

B2: 3H5 (antibody, human IgG1, V domains shown)
VH: QVQLKESGPGLVAPSQSLSITCTVSGFSLTSYGVSWVRQPPGKGLEWLGVIWGDGSTNYHSALISRLSISKDNSKSQVFLKLNSLQTDDTATYYCAKPRWDDYAMDYWGQGTSVTVSS
VL: DIQMTQTTSSLSASLGDRVTISCRASQDISNYLNWYQQKPDGTVKLLIYYTSRLHSGVPSRFSGSGSGTDYSLTISNLEQEDIATYFCQQGNTLWTFGGGTKLEIK
binds: all assays above

B3: 27H5 (antibody, human IgG1, V domains shown)
VH: QVQLKESGPGLVAPSQSLSITCTVSGFSLTSYGVSWVRQPPGKGLEWLGVIWGDGNTNYHSALISRLSISKDNSKSQVFLKLNSLQTDDTATYYCARTNWDGWFAYWGQGTLVTVSA
VL: DIVMTQSHKFMSTSVGDRVSITCKASQDVGTAVAWYQQKPGQSPKLLIYWASTRHTGVPDRFTGSGSGTDFTLTISNVQSEDLADYFCQQYRSYPLGTFGGGTKLEIK
binds: all assays above
